Measured values reported in PubChem BioAssay AID493014 (National Center for Advancing Translational Sciences (NCATS), 2011).
The other results are listed elsewhere or left out. Shown are side measurements of this screen, not its main read-out; they come without a call. Most of these compounds were active or inconclusive in the main read-out, so they are no random draw. The note in brackets gives the kind of curve behind each potency; many fits are weak.

Test: qHTS Assay to Find Inhibitors of Chronic Active B-Cell Receptor Signaling
Details: ABC-DLBCL IkBa-CBG/CBR reporter, luminescence ratio (green luciferase fused to IkBa over red control in TMD8 lymphoma cells), 4 h
How it was run: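 TMD8 ABC-DLBCL cells carrying doxycycline-inducible green luciferase fused to IkappaBalpha plus unfused red luciferase were exposed to compounds (up to 46 uM) for 4 hrs at 37C. Activity came from the overlap-corrected green/red luminescence ratio.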

[1] = measured here: CBR red luminescence, cell number
[2] = measured here: IkBa-CBG green luminescence

Structure (SMILES) | AC50 [1] | AC50 [2]
COc1ccc(Cl)cc1NC(=O)Cn1nnc(C(=O)NCc2ccc3c(c2)OCO3)c1N | 35.5 µM [rising, single point] | 
CCCOc1ccc(NC2=CC(=O)CC(C)(C)C2)cc1 | 0.259 µM [falling, full curve, poor fit] | 
CCN(CC)CCOC(=O)c1ccc(NC(=O)c2cc3cccc(OC)c3oc2=O)cc1 | 0.316 µM [falling, full curve, poor fit] | 
CC(C)(C)OC(=O)NCCc1nnc(SCC(=O)Nc2ccc(Br)cc2)o1 | 11.2 µM [falling, partial curve, poor fit] | 
C/C(=N/NC(=O)c1ccoc1C)c1ccc(NC(=O)c2ccncc2)cc1 | 5.8 µM [falling, partial curve] | 
CC1(C)CCC(=O)N2CC[C@H]3C[C@H](OC(=O)Nc4ccc(Br)cc4)C[C@@H]1[C@H]32 | 0.316 µM [rising, full curve, poor fit] | 
Cc1ccc2nc(NC(=O)c3ccc(OCC4CCCO4)cc3)sc2c1 (centres undefined) | 2.06 µM [falling, full curve] | 
c1cnc(N2CCN(Cc3ccc4c(c3)OCO4)CC2)nc1 | 16.4 µM [rising, partial curve] | 
Cc1[nH]nc2c1/C(=N/O)CC(c1ccccc1)C2 (centres undefined) | 3.98 µM [falling, full curve] | 
CNC(=O)c1ccc(Nc2nnc(-c3ccc(C)c(S(=O)(=O)NCC4CCCO4)c3)c3ccccc23)cc1 (centres undefined) | 16.4 µM [falling, partial curve, poor fit] | 
CCOC(=O)N1CCN(C(=O)CN(c2ccc3c(c2)OCO3)S(C)(=O)=O)CC1 | 29.1 µM [rising, partial curve, poor fit] | 
CNC(=O)c1c(NC(=O)C2=COCCO2)sc2c1CCCC2 | 6.31 µM [rising, single point] | 
CCCCCCCNC1=CC(=O)CC(c2ccco2)C1 (centres undefined) | 16.4 µM [rising, partial curve, poor fit] | 
FC(F)(F)c1cccc(OCC2CNC(=S)O2)c1 (centres undefined) | 0.0891 µM [rising, full curve, poor fit] | 
O=C(NCCc1ccccc1)C(=S)N1CCCCC1 | 15.8 µM [rising, single point] | 
COc1ccc(/C=C2/SC(=S)N(CCCC(=O)Nc3ccc(O)cc3)C2=O)cc1 | 2.82 µM [falling, partial curve] | 
O=C(CCn1c(=O)[nH]c2ccccc2c1=O)N1CCN(c2cccc(C(F)(F)F)c2)CC1 | 1.78 µM [rising, partial curve, poor fit] | 
COc1ccc(NC(=O)c2cccc(S(=O)(=O)N3CCCCC3)c2)c(OC)c1 | 10 µM [falling, single point] | 
CCOC(=O)C(C(=O)OCC)c1cc(Br)c2noc3c2c1C(=O)c1ccccc1-3 |  | 0.708 µM [rising, full curve, poor fit]
Cc1cc(C=NCCO)c(C)n1-c1cc(Cl)ccc1Cl | 20 µM [falling, partial curve, poor fit] | 
CCOC(=O)c1cc2c(ccc3ccccc32)oc1=O | 0.1 µM [rising, full curve, poor fit] | 

Structure (SMILES) | AC50 [1] | AC50 [2]
C=CCSc1nnc(N2C(=O)C(O)=C(C(=O)c3ccco3)C2c2ccc(F)cc2)s1 (centres undefined) | 11.2 µM [falling, single point] | 
Cn1c(=O)c(C(=O)COC(=O)c2cc(-c3ccccc3)nc3ccccc23)c(N)n(Cc2ccccc2)c1=O | 1.03 µM [rising, full curve, poor fit] | 
CC(CN1CCCCC1)OC(=O)c1ccccc1Cl (centres undefined) | 6.51 µM [falling, single point] | 
CC(C)CCn1c(O)c(N=Nc2ccccn2)c2ccccc21 | 11.6 µM [rising, partial curve] | 
CN(C)NC(=O)c1ccsc1NC(=O)c1ccc(S(=O)(=O)N(C)C)cc1 | 0.112 µM [falling, full curve, poor fit] | 
Cn1cc([N+](=O)[O-])c(C(=O)Nc2ccc(-c3nc4ccccc4[nH]3)cc2)n1 | 23.1 µM [falling, single point] | 
COc1ccccc1NC(c1cccnc1)c1ccc2cccnc2c1O (centres undefined) | 8.2 µM [falling, partial curve, poor fit] | 
CN1C2=CC=CC=CC2=[N+](C)C12C=CC(=[N+]([O-])[O-])C=C2[N+](=O)[O-] (centres undefined) | 35.5 µM [rising, partial curve, poor fit] | 
O=C(COC(=O)CCCN1C(=O)c2cccc3cccc(c23)C1=O)NC1CCS(=O)(=O)C1 (centres undefined) | 1.16 µM [rising, full curve] | 
Nc1cc(S(=O)(=O)N2CCOCC2)ccc1N1CCCCC1 | 23.1 µM [rising, single point] | 
O=C(Cc1ccc(Cl)cc1)NC(=S)Nc1ccccc1N1CCOCC1 |  | 23.1 µM [rising, partial curve, poor fit]
Cc1nc2c3ccccc3n(Cc3ccccc3F)c2s1 | 14.6 µM [rising, partial curve, poor fit] | 
CCOC(=O)N1CCN(c2nc3ccc(C(=O)c4ccccc4)cc3n3cnnc23)CC1 | 35.5 µM [rising, partial curve, poor fit] | 
COc1ccc2ccc(O)c(CN3CCN(S(=O)(=O)c4cc([N+](=O)[O-])ccc4C)CC3)c2c1 |  | 8.2 µM [falling, partial curve, poor fit]
O=C(CSC(=S)N1CCCC1)c1ccccc1 | 15.8 µM [falling, partial curve] | 
Cc1cccc([C@@H]2[C@@H]3C(=O)N(Cc4ccccc4)C(=O)[C@@H]3[C@]3(CC(C)C)C(=O)N(c4cccc(Br)c4)C(=O)N23)c1 | 1.41 µM [falling, full curve, poor fit] | 
O=C(NC(=S)Nc1cccc(Cl)c1N1CCCCC1)c1cccs1 | 14.1 µM [rising, single point] | 
Cc1c(C(=O)Nc2nc3ccccc3[nH]2)oc2c(Cl)cccc12 | 2.31 µM [falling, full curve, poor fit] | 
Cc1ccc(C)c(NC(=O)c2nnn(Cc3ccccc3C)c2N)c1 | 8.91 µM [falling, partial curve, poor fit] | 
COc1ccc(NC(=O)N(C)C[C@H]2Oc3c(NC(=O)Cc4ccccc4)cccc3C(=O)N([C@H](C)CO)C[C@@H]2C)cc1 | 25.9 µM [rising, single point] | 
COc1ccc(CN2CCN(C(=O)c3ccc(S(=O)(=O)N4CCCCCC4)cc3)CC2)cc1 | 2.91 µM [rising, partial curve, poor fit] | 

Structure (SMILES) | AC50 [1] | AC50 [2]
C=COC(=O)CSc1nc(-c2cccs2)ccc1C#N | 0.447 µM [rising, full curve, poor fit] | 
O=C(C1CCN(S(=O)(=O)c2cnc[nH]2)CC1)N(CCc1ccccc1)Cc1ccccc1 | 0.178 µM [rising, full curve, poor fit] | 
CCOC(=O)c1ccccc1NC(=O)c1c(O)c2ccccc2n(CC)c1=O | 0.366 µM [falling, full curve, poor fit] | 
COc1cccc(NC(=O)Nc2nc(-c3ccc(OC)c(OC)c3)cs2)c1 | 4.47 µM [falling, full curve] | 11.2 µM [rising, partial curve, poor fit]
CCc1nnc(NC(=O)CSc2ncc(-c3ccccc3)n2C)s1 | 14.1 µM [rising, single point] | 22.4 µM [falling, single point]
O=C(Nc1ccsc1C(=O)O)c1ccccc1 | 5.01 µM [falling, partial curve] | 
CC(C)C[C@H](N)c1nnc(S(=O)(=O)Cc2cccc(F)c2)o1 | 18.4 µM [falling, partial curve, poor fit] | 
O=C(Nc1ccc(Cl)cc1)c1cc(S(=O)(=O)N2CCCc3ccccc32)ccc1F | 6.31 µM [falling, partial curve] | 
CCc1c(C)c2ccc(OCC(=O)OC)cc2oc1=O | 23.1 µM [rising, single point] | 
CCc1cc2c(=O)c(-c3nc4ccccc4n3C)coc2c(CN2CCOCC2)c1O | 18.4 µM [falling, single point] | 
C/C(N)=C(/C#N)C(=O)CSc1nc2ccccc2c(=O)n1CCCO | 0.00411 µM [rising, full curve, poor fit] | 
Cn1c(=O)n(C)c2cc(NC(=O)C(F)(F)F)ccc21 | 29.1 µM [rising, single point] | 
CCOC(=O)c1c(C)[nH]c(C)c1S(=O)(=O)N1CCCC(C(=O)NCc2ccc(C)cc2)C1 (centres undefined) | 5.01 µM [rising, full curve] | 
CCCCCc1cccnc1 | 11.2 µM [falling, partial curve, poor fit] | 
O=C(Nc1ccc(N2CCCCCC2)cc1)c1cccc(S(=O)(=O)N2CCOCC2)c1 | 14.6 µM [falling, partial curve, poor fit] | 
CCOc1ccc(C2=C(C(=O)CC)Sc3nncn3N2C(=O)CC)cc1 | 35.5 µM [rising, partial curve, poor fit] | 35.5 µM [falling, single point]
CCC(CC)NC(=O)C1CCN(c2ccc(S(=O)(=O)N3CCOCC3)cc2[N+](=O)[O-])CC1 | 1.3 µM [rising, full curve, poor fit] | 
C#CCSc1n[nH]c(-c2ccco2)n1 | 1.12 µM [rising, partial curve] | 
O=S(=O)(Nc1ncccn1)c1ccc(Nc2ncnc3ccccc23)cc1 | 29.1 µM [rising, single point] | 

Individual results from above.
AC50 [1], C#CCSc1n[nH]c(-c2ccco2)n1 reads 1.12 µM [rising, partial curve]
AC50 [1], C=COC(=O)CSc1nc(-c2cccs2)ccc1C#N reads 0.447 µM [rising, full curve, poor fit]
